No constants are given. Whether binding was seen depends on the method and setting. Sequences can lack the tags named with a protein.
Biological target: His-ABCD1 (UniProt P33897)
Assay: pull-down; eluates (15 μg each) mixed, rotated at 4 °C for 15 min, incubated with His-tag affinity resin overnight at 4 °C; wash 50 mM Tris–HCl pH 7.5, 300 mM NaCl, 0.1% β-DDM; immunoblot with anti-His or anti-GST; both purified

Amino acid sequences for entries named in this document (tags omitted).
UniProt P33897: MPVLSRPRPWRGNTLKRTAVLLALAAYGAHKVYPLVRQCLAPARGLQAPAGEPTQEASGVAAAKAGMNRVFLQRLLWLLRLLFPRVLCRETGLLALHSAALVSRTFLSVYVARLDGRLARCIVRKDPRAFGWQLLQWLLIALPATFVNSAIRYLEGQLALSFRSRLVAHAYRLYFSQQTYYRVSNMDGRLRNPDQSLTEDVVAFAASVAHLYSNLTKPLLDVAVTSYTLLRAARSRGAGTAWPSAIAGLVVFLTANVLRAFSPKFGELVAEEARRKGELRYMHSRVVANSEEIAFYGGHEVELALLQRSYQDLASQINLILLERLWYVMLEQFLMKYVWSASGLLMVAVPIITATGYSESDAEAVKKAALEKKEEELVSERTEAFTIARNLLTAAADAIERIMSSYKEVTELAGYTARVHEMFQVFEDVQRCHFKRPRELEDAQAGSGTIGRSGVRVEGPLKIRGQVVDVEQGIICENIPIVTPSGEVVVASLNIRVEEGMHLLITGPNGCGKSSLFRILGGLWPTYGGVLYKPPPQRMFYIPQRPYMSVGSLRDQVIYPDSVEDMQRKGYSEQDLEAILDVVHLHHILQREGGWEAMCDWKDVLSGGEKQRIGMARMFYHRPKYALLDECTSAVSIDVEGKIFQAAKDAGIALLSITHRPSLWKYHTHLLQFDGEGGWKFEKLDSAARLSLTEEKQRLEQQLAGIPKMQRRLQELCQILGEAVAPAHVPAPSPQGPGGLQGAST

binding: no binding
B1: glutathione-S-transferase (GST)–tagged LMBD1 (protein, UniProt Q9NUN5 1-540)
chain: MATSGAASAELVIGWCIFGLLLLAILAFCWIYVRKYQSRRESEVVSTITAIFSLAIALITSALLPVDIFLVSYMKNQNGTFKDWANANVSRQIEDTVLYGYYTLYSVILFCVFFWIPFVYFYYEEKDDDDTSKCTQIKTALKYTLGFVVICALLLLVGAFVPLNVPNNKNSTEWEKVKSLFEELGSSHGLAALSFSISSLTLIGMLAAITYTAYGMSALPLNLIKGTRSAAYERLENTEDIEEVEQHIQTIKSKSKDGRPLPARDKRALKQFEERLRTLKKRERHLEFIENSWWTKFCGALRPLKIVWGIFFILVALLFVISLFLSNLDKALHSAGIDSGFIIFGANLSNPLNMLLPLLQTVFPLDYILITIIIMYFIFTSMAGIRNIGIWFFWIRLYKIRRGRTRPQALLFLCMILLLIVLHTSYMIYSLAPQYVMYGSQNYLIETNITSDNHKGNSTLSVPKRCDADAPEDQCTVTRTYLFLHKFWFFSAAYYFGNWAFLGVFLIGLIVSCCKGKKSVIEGVDEDSDISDDEPSVYSA
